Measured values: publication PMC11329700

Key:
[1] = molecular target: GST-Dyn1xA-PRR 751-798 (rat); assay: pull-down; GST fusion proteins on GSH-sepharose beads incubated with pre-cleared rat brain synaptosomal lysate (20 mM Tris pH 7.4, 150 mM NaCl, 1% Triton X-100, 1 mM EDTA, 1 mM EGTA) at 4 °C for 1 h; bound proteins by Coomassie stain or Western blot (some blots quantified by densitometry); only the target purified
[2] = molecular target: GST-Dyn1xB-PRR (dynamin 1xB proline-rich region, amino acids 746-851) (rat); assay: as above

- binding [1]: no binding
- binding [2]: binds
B1: Amphiphysin 1 (protein, UniProt O08838 1-683)
chain: MADIKTGIFAKNVQKRLNRAQEKVLQKLGKADETKDEQFEEYVQNFKRQEAEGTRLQRELRGYLAAIKGMQEASMKLTESLHEVYEPDWYGREDVKMVGEKCDVLWEDFHQKLVDGSLLTLDTYLGQFPDIKNRIAKRSRKLVDYDSARHHLEALQSSKRKDESRISKAEEEFQKAQKVFEEFNVDLQEELPSLWSRRVGFYVNTFKNVSSLEAKFHKEIAVLCHKLYEVMTKLGDQHADKAFSIQGAPSDSGPLRIAKTPSPPEEASPLPSPTASPNHTLAPASPAPVRPRSPSQTRKGPPVPPLPKVTPTKELQQENIINFFEDNFVPEINVTTPSQNEVLEVKKEETLLDLDFDPFKPDVTPAGSAAATHSPMSQTLPWDLWTTSTDLVQPASGGSFNDFTQPQDTSLFTMQTDQNMAETEQALPTEPQAEEPPTTAAAPTAGLDLGLEMEEPKEEAAIPPGTDAGETVGTEGSTGEEAEAEKAALPAGEGESPEGAKIDVESTELASSESPQAAELEAGAPQEKVIPSVVIEPASNHEGEEHQETTTGTETREATEDVAPQGPAGEKQELATEPTPLDSQAATPAPAGAVDASLSAGDAAQELPPGFLYKVETLHDFEAANSDELTLQRGDVVLVVPSDSEADQDAGWLVGVKESDWLQYRDLATYKGLFPENFTRHLE

No constants are given. Whether binding was seen depends on the method and setting. In cells and extracts the contact can be indirect. For some assays here: Binding calls can cover weak binding; strength is not graded here.
